PubChem BioAssay AID1259317 – Drosophila RNAi Screening Center | 2017
Shown is one part, drawn at random, of 418 reagents. In the full data, 34 (8.1%) were called active. 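Hits are two-sided: raised or lowered ATP both count; higher z-score means more ATP and more surviving cells.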 No sequences are given here. Not given: the amount of reagent.

Purpose: 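Genes whose knockdown changes fly cell survival under toxic manganese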 (primary screen)
Cells: Drosophila S2R+ cells
Reagent: long dsRNA against Drosophila genes
Duration: 5 days (4 days knockdown, then 1 day metal)
Treatment: manganese chloride added to 15 mM final for 1 day
Read-out: 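Cellular ATP measured by luciferase luminescence after 4 days knockdown then 1 day of 15 mM manganese chloride; z-score averaged over three plates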
Scale: mean z-score, 3 replicates: higher = more ATP, more surviving cells under manganese
Hit rule: 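Active calls require an absolute mean z-score greater than 1.5, in either direction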
Meaning of the calls: active = hit: z-score beyond ±1.5 (ATP up or down); inactive = not a hit

With knock-down of Vps16B (Vacuolar protein sorting 16B) [DRSC15304], the screen gave mean z-score, 3 replicates -0.366; inactive.
With knock-down of Vps16B (Vacuolar protein sorting 16B) [DRSC34692], the screen gave mean z-score, 3 replicates -0.207; inactive.
Depletion of Vps16B (Vacuolar protein sorting 16B) [DRSC34693] resulted in: mean z-score, 3 replicates -0.67; inactive.
With knock-down of Acox57D-d (acyl-Coenzyme A oxidase at 57D distal) [DRSC04561] the results were mean z-score, 3 replicates -1.36; inactive.
After knock-down of Acox57D-d (acyl-Coenzyme A oxidase at 57D distal) [DRSC30108], the record shows mean z-score, 3 replicates 0.229; inactive.
Knock-down of Tsp39D (Tetraspanin 39D) [DRSC03099] gave: mean z-score, 3 replicates -0.24; inactive.
Silencing of Tsp39D (Tetraspanin 39D) [DRSC40050] resulted in: mean z-score, 3 replicates 0.286; inactive.
Pex19 (Peroxin 19) [DRSC02839] gave mean z-score, 3 replicates 0.348; inactive.
After knock-down of VhaSFD (Vacuolar H[+]-ATPase SFD subunit) [DRSC03471], the screen gave mean z-score, 3 replicates 2.23; active.
Depletion of VhaSFD (Vacuolar H[+]-ATPase SFD subunit) [DRSC32234] gave: mean z-score, 3 replicates -1.28; inactive.
With knock-down of VhaSFD (Vacuolar H[+]-ATPase SFD subunit) [DRSC32235] the results were mean z-score, 3 replicates -1.12; inactive.
Silencing of CG32191 [DRSC10522] resulted in: mean z-score, 3 replicates -1.12; inactive.
After knock-down of sbm (sobremesa) [DRSC20185] the results were mean z-score, 3 replicates -1.25; inactive.
sbm (sobremesa) [DRSC40020] gave mean z-score, 3 replicates -1.01; inactive.
Silencing of Vha36-1 (Vacuolar H[+] ATPase 36kD subunit 1) [DRSC07098] resulted in: mean z-score, 3 replicates -0.813; inactive.
For Vha36-1 (Vacuolar H[+] ATPase 36kD subunit 1) [DRSC25624], the values are mean z-score, 3 replicates 1.49; inactive.
Vps36 (Vacuolar protein sorting 36) [DRSC09785] showed mean z-score, 3 replicates -1.13; inactive.
Against Vps36 (Vacuolar protein sorting 36) [DRSC37364] the deposit lists mean z-score, 3 replicates -0.575; inactive.
Depletion of Gga [DRSC18260] came out at: mean z-score, 3 replicates -1.25; inactive.
Silencing of Gga [DRSC27761] gave: mean z-score, 3 replicates -0.318; inactive.
With knock-down of Pex11ab (Peroxin 11a/b) [DRSC07145], the screen gave mean z-score, 3 replicates 0.609; inactive.
With knock-down of Vps35 (Vacuolar protein sorting 35) [DRSC04519], the record shows mean z-score, 3 replicates 1.02; inactive.
Silencing of Vps35 (Vacuolar protein sorting 35) [DRSC28790] came out at: mean z-score, 3 replicates 0.0556; inactive.
Against Vps35 (Vacuolar protein sorting 35) [DRSC36445] the deposit lists mean z-score, 3 replicates 0.649; inactive.
With knock-down of VhaPPA1-2 (Vacuolar H[+] ATPase PPA1 subunit 2) [DRSC16176], the record shows mean z-score, 3 replicates 0.584; inactive.
With knock-down of VhaPPA1-2 (Vacuolar H[+] ATPase PPA1 subunit 2) [DRSC25591], the screen gave mean z-score, 3 replicates -0.459; inactive.
For Vha36-2 (Vacuolar H[+] ATPase 36kD subunit 2) [DRSC06294], the values are mean z-score, 3 replicates -0.467; inactive.
Vha36-2 (Vacuolar H[+] ATPase 36kD subunit 2) [DRSC29238] scored mean z-score, 3 replicates 0.309; inactive.
For Acox57D-p (acyl-Coenzyme A oxidase at 57D proximal) [DRSC04560], the values are mean z-score, 3 replicates -1.13; inactive.
For Acox57D-p (acyl-Coenzyme A oxidase at 57D proximal) [DRSC39339] the deposit lists mean z-score, 3 replicates 0.0362; inactive.
For Mfe2 (peroxisomal Multifunctional enzyme type 2) [DRSC19869] the deposit lists mean z-score, 3 replicates -0.723; inactive.

A stretch of the results above, for reference:
Vps36 (Vacuolar protein sorting 36) [DRSC37364] → mean z-score, 3 replicates: -0.575; Call: inactive
Gga [DRSC18260] → mean z-score, 3 replicates: -1.25; Call: inactive
Gga [DRSC27761] → mean z-score, 3 replicates: -0.318; Call: inactive
Pex11ab (Peroxin 11a/b) [DRSC07145] → mean z-score, 3 replicates: 0.609; Call: inactive
Vps35 (Vacuolar protein sorting 35) [DRSC04519] → mean z-score, 3 replicates: 1.02; Call: inactive

The results go on.
Knock-down of CG13084 [DRSC02188] came out at: mean z-score, 3 replicates -0.0237; inactive.
CG6638 [DRSC10680] scored mean z-score, 3 replicates 2.16; active.
CG6638 [DRSC24246] gave mean z-score, 3 replicates 1.46; inactive.
For beta-Man (beta-Mannosidase) [DRSC12208], the entry reads mean z-score, 3 replicates 1.45; inactive.
For beta-Man (beta-Mannosidase) [DRSC12209] the deposit lists mean z-score, 3 replicates -1.35; inactive.
Against ClC-a (Chloride channel-a) [DRSC14947], the entry reads mean z-score, 3 replicates -0.0533; inactive.
After knock-down of ClC-a (Chloride channel-a) [DRSC14948], the screen gave mean z-score, 3 replicates 1.5; active.
Depletion of ClC-a (Chloride channel-a) [DRSC16142] resulted in: mean z-score, 3 replicates -0.00716; inactive.
Against Rgk1 (Rad, Gem/Kir family member 1) [DRSC05785], the entry reads mean z-score, 3 replicates -0.449; inactive.
After knock-down of Rgk1 (Rad, Gem/Kir family member 1) [DRSC23535] the results were mean z-score, 3 replicates -0.371; inactive.
With knock-down of Rgk1 (Rad, Gem/Kir family member 1) [DRSC37293] the results were mean z-score, 3 replicates 0.0114; inactive.
After knock-down of Muc11A (Mucin 11A) [DRSC29295], the record shows mean z-score, 3 replicates 0.695; inactive.
Silencing of Vps13B (Vacuolar protein sorting 13B) [DRSC15060] resulted in: mean z-score, 3 replicates 2.29; active.
Vps13B (Vacuolar protein sorting 13B) [DRSC34131] gave mean z-score, 3 replicates -1.08; inactive.
Against Abcd1 (ATP binding cassette subfamily D member 1) [DRSC17157], the entry reads mean z-score, 3 replicates 0.71; inactive.
Against Abcd1 (ATP binding cassette subfamily D member 1) [DRSC39677], the values are mean z-score, 3 replicates 0.113; inactive.
